Binding data for one substance are collected here from publication PMC11399591.

Chains of the proteins cited; added tags and fusions are not shown. Residues count along the entry.
UniProt Q96J86, residues 30-154: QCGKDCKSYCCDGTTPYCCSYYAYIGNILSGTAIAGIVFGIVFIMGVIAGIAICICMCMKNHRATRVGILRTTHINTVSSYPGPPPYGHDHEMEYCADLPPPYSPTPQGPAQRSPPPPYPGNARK
UniProt Q8IZ07: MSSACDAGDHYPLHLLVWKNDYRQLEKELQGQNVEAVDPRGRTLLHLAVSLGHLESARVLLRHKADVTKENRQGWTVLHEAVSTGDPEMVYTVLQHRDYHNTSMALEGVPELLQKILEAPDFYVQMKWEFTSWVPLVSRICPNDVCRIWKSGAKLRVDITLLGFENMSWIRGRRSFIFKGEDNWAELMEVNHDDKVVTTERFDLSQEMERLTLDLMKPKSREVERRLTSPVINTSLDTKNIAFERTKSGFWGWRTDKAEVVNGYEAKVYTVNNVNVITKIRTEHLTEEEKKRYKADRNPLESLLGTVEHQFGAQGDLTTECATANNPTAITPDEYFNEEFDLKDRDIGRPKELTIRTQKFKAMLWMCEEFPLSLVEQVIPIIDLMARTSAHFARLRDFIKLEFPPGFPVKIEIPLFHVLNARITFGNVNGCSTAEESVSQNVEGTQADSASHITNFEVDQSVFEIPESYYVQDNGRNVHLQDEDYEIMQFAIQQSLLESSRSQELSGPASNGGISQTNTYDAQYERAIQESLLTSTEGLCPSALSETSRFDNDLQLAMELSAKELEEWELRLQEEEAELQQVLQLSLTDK

No constants are given. Whether binding was seen depends on the method and setting. Binding seen in cells or lysates may run through a third protein. These calls come from enrichment with a bait or labelling near it, and not all partners need be listed.

The target of the assay is GFP-CYYR1 (UniProt Q96J86). Put plainly: affinity purification with mass spectrometry; HEK293 transfected with GFP or GFP-CYYR1; lysis in IP150 buffer (20 mM Tris-HCl pH 7.5, 150 mM NaCl, 5 mM EDTA, 1% NP-40, 10% glycerol); 3.5 mg protein on GFP-Trap overnight at 4 °C; quantitative label-free mass spectrometry, n = 5.

In the case of “endogenous ANKRD13A (from UniProt Q8IZ07 1-590)”, the binding entry is reported as “binds”.
